# Experimental data from PubChem BioAssay AID624291 (National Center for Advancing Translational Sciences (NCATS), 2012).
# In all, about 350,000 compounds went through this assay and about 220 (0.063%) were called active. The inconclusive results got no clear call from the source; some entries with a clear call stand among them for comparison. The call rests on the fitted dose curve; in most records, active means well fitted activation curve with a large enough effect; inconclusive means small, poorly fitted or top-dose-only effect; inactive means no such curve, though single readings can be large or run the other way. Where the call is inconclusive, the potency comes from a doubtful curve fit.
# Assay: qHTS for Activators of Integrin-Mediated Alleviation for Muscular Dystrophy; further: nearly all actives have a fitted effect of over 60% in size;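 on activation: 100% = response of the positive control SU9516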
# Details: alpha7betagal myoblasts, beta-gal FDG fluorescence, 48 h; activation: at 38.3 µM (top of the series)
# How it was run: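 Alpha7betagal+/- myoblasts (passage 13) were plated 16-24 hr, then exposed to compounds (1:260 dilution of DMSO stock) for 48 hours at 37C. After MPER lysis, β-galactosidase reporter activity was read as FDG fluorescence (ex 480/em 540) after 30 minutes.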
# Potency means the concentration at half of the fitted maximal effect.
Structure (SMILES),Potency,activation
COC(=O)C(C(=O)OC)C(C[N+](=O)[O-])c1ccc(OC)c(OC)c1 (stereo not given),inactive,–
O=C(CCS(=O)(=O)c1ccc(Cl)cc1)NCCc1c[nH]c2ccccc12,"inconclusive: 0.708 µM [activator, full curve, poor fit]",–
COc1ccc(/C=N/NC(=O)c2ccn[nH]2)cc1CSc1ccccn1,"inconclusive: 5.01 µM [activator, single point]",–
Cn1nc(C(=O)Nc2cccc(C(=O)NC3CC3)c2)c2ccccc2c1=O,"inconclusive: 3.98 µM [activator, single point]",–
O=C(COc1ccccc1Cl)Nc1ccccc1C(=O)N1CCCCC1,"inconclusive: 15.8 µM [activator, partial curve, poor fit]",–
Cc1ccc(NC(=S)N2CC(C)OC(C)C2)cc1C (stereo not given),"inconclusive: 28.2 µM [activator, single point]",–
CN(C)S(=O)(=O)c1ccc(C(=O)NCCC(=O)N2CCCC2)cc1,"inconclusive: 2.51 µM [activator, partial curve, poor fit]",–
Cc1cc(C(=O)CSc2nncs2)c(C)n1-c1c(C)n(C)n(-c2ccccc2)c1=O,inactive,–
Cc1ccccc1C(=O)NNC(=O)C(C)N1C(=O)c2ccccc2C1=O (stereo not given),–,inconclusive: 5.8% [activator]
COc1ccc(C(C(=O)NC2CCCC2)N(C(=O)c2ccco2)c2cc3c(cc2C(C)=O)OCO3)cc1 (stereo not given),inactive,–
Cn1c(CC(=O)Nc2ccccc2F)nnc1SCC(=O)Nc1nccs1,"inconclusive: 12.6 µM [activator, single point]",–
Cc1ccc(N(Cc2cc3ccc(C)cc3[nH]c2=O)S(C)(=O)=O)c(C)c1,inactive,–
CCCCNC(=O)/C=C/c1ccc(OC)c(Br)c1,inactive,–
COc1ccc(C)cc1S(=O)(=O)NNc1nc(C)cc(C)n1,inactive,–
Cc1ccc(C(=O)Nc2ccc(C(=O)O)cc2)cc1S(=O)(=O)NCc1ccccc1,–,inconclusive: -78.5% [activator]
COc1ccc(OCCCCN(C)Cc2ccccc2)cc1,inactive,–
COc1ccc(CN2CCN(Cc3ccc(C(F)(F)F)cc3)CC2)c(OC)c1,inactive,–
COc1cccc(-c2nc3ccccc3s2)c1,inactive,–
N#Cc1c(-c2ccc(Cl)cc2)cc(-c2cccs2)nc1SCC(=O)O,inactive,–
CSc1nnc(CNS(=O)(=O)c2ccc(Cl)cc2)n1C,"inconclusive: 5.01 µM [activator, single point]",–
Cc1ccc(-c2nnc(SCC(=O)N/N=C/c3ccc(C(=O)O)cc3)n2C2CCCCC2)cc1,"inconclusive: 4.47 µM [activator, single point]",–
CN(C(=O)COn1nnc2ccc(S(=O)(=O)N3CCOCC3)cc21)c1ccccc1,inactive,–
N#Cc1c(C(F)(F)F)cc(=O)n2c1[nH]c1ccccc12,inactive,–

Structure (SMILES),Potency,activation
Cn1ncc(C(=O)Nc2ccc(OC(F)(F)F)cc2)c1-n1cccc1,"inconclusive: 2.82 µM [activator, partial curve, poor fit]",–
NC(=O)C(c1ccccn1)c1ncc(C(F)(F)F)cc1Cl (stereo not given),"inconclusive: 0.447 µM [activator, full curve, poor fit]",–
O=c1nc2s/c(=C\c3ccco3)c(=O)n2nc1Cc1ccc(F)cc1,"inconclusive: 28.2 µM [activator, single point]",–
COCCOCC(=O)Nc1ccc(S(=O)(=O)Nc2cc(C)nc(C)n2)cc1,"inconclusive: 0.794 µM [activator, partial curve, poor fit]",–
O=C(NCC1CCCO1)c1cccc(Oc2c(Cl)cccc2[N+](=O)[O-])c1 (stereo not given),"inconclusive: 2.24 µM [activator, single point]",–
COc1ccc(Cl)cc1NC(=O)CN(C)C(=O)Cc1ccc2c(c1)CCC2,"inconclusive: 11.2 µM [activator, single point]",–
Cc1ccc(/C=C2/NC(=O)[C@H](C)NC2=O)cc1,"inconclusive: 3.98 µM [activator, single point]",–
CCCc1ccc(S(=O)(=O)N(C)S(=O)(=O)c2ccc(F)cc2)cc1,"inconclusive: 5.01 µM [activator, single point]",–
CCc1ccccc1NC(=O)C1CCCN1C(=O)NCc1ccccc1 (stereo not given),"inconclusive: 5.01 µM [activator, single point]",–
O=[N+]([O-])c1ccccc1/C=N\N1CCN(c2ccccc2)CC1,"inconclusive: 3.16 µM [activator, single point]",–
NC(=O)c1ccsc1NC(=O)COC(=O)c1ccccc1F,"inconclusive: 31.6 µM [activator, single point]",–
O=[N+]([O-])c1ccc2c(c1)Cc1cc(F)ccc1-2,"inconclusive: 2 µM [activator, partial curve, poor fit]",–
Cc1cc(NC(=O)CSc2nc3ccsc3c(=O)n2NC(=O)c2ccccc2)no1,"inconclusive: 10 µM [activator, single point]",–
CCOC(=O)C1=C(C)NC(C)=C(C(=O)OCC)C1c1ccncc1,inactive,–
CCc1nnc2n1N=C(c1cccc([N+](=O)[O-])c1)CS2,"inconclusive: 5.01 µM [activator, single point]",–
COc1cc2[nH]c(=O)n(CCC(=O)N3CCN(Cc4ccc5c(c4)OCO5)CC3)c(=O)c2cc1OC,"inconclusive: 8.91 µM [activator, single point]",–
CCOc1ccc(-c2c(C#N)c(N)nc3sc(C(=O)c4ccccc4)c(N)c23)cc1,inactive,–
CCn1c2ccccc2c2cc(/C=N/n3c(C)nnc3C)ccc21,"inconclusive: 10 µM [activator, single point]",–
Cn1cc(CN2CCC(n3nccc3NC(=O)CCOc3ccccc3)CC2)cn1,"inconclusive: 5.01 µM [activator, single point]",–
C=CCn1c(SCc2ccccc2)nc2c1c(=O)[nH]c(=O)n2C,"inconclusive: 5.01 µM [activator, single point]",–
N#CC(C#N)=C1C=CC=CN1/C(=C\c1ccccc1)C(=O)c1cccs1,inactive,–
N#CC1=C(N)Oc2c(oc(CO)cc2=O)C1c1ccsc1 (stereo not given),inactive,–

# Single records (already shown).
# Cc1cc(C(=O)CSc2nncs2)c(C)n1-c1c(C)n(C)n(-c2ccccc2)c1=O reads Potency: inactive
# CN(C)S(=O)(=O)c1ccc(C(=O)NCCC(=O)N2CCCC2)cc1 reads Potency: inconclusive: 2.51 µM [activator, partial curve, poor fit]
# O=c1nc2s/c(=C\c3ccco3)c(=O)n2nc1Cc1ccc(F)cc1 reads Potency: inconclusive: 28.2 µM [activator, single point]
# NC(=O)C(c1ccccn1)c1ncc(C(F)(F)F)cc1Cl (stereo not given) reads Potency: inconclusive: 0.447 µM [activator, full curve, poor fit]
